Test results from article doi:10.1101/2020.12.31.424961.
No constants are given. Whether binding was seen depends on the method and setting. In cells and extracts the contact can be indirect. A yes stands for co-enrichment or nearness to the bait. Other partners may have been found. For part of these data: Where a sequence is shown, tags or fusion partners need not be part of it.

The chains behind the UniProt entries cited, without tags or fusion partners. Residues count along the entry.
UniProt Q15303, 26-1308: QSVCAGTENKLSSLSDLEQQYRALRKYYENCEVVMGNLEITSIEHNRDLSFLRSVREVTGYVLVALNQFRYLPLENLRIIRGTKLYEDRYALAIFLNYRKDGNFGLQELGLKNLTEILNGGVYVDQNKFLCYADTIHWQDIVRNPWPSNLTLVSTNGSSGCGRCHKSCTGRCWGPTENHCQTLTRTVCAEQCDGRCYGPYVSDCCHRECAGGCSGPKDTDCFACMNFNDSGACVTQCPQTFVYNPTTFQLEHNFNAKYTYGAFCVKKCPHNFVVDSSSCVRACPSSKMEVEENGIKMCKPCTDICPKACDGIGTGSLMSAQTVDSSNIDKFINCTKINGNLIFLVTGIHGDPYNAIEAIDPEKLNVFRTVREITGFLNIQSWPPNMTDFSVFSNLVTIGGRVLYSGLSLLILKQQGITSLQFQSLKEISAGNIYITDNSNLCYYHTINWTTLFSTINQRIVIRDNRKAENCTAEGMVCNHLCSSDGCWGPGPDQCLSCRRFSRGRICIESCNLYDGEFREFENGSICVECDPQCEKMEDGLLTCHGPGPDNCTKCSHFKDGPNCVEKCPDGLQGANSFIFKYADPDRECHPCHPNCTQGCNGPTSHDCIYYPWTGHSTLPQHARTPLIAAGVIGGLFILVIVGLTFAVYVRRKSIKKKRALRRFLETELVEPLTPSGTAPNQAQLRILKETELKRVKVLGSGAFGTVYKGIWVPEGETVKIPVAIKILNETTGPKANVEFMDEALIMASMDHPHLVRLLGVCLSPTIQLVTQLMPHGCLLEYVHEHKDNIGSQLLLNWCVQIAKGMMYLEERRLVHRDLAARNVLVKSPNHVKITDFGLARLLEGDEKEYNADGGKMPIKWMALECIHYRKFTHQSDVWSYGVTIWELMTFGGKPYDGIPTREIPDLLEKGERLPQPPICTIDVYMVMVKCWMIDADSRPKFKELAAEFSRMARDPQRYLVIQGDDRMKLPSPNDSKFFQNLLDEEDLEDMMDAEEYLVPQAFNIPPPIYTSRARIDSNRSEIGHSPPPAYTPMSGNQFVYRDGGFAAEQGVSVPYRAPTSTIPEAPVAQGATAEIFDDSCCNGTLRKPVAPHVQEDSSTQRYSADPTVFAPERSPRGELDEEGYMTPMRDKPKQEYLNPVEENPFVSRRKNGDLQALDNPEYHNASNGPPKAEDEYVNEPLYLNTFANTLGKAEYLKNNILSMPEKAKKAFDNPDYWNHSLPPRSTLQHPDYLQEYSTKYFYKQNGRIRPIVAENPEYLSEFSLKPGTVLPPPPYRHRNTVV

How the values were obtained:
[1] = molecular target: SARS-CoV-2 NSP6, SFB- or BioID2-tagged (SARS-CoV-2) (UniProt P0DTD1); assay: affinity purification with mass spectrometry + proximity labelling
[2] = molecular target: T1, HCoV-229E NSP1, SFB-tagged (HCoV-229E) (UniProt P0C6X1); assay: affinity purification with mass spectrometry
T1 sequence: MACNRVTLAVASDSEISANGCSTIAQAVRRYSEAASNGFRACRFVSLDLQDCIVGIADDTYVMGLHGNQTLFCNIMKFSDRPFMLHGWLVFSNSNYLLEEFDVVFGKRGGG

[3] = molecular target: SARS-CoV-2 NSP15, SFB- or BioID2-tagged (SARS-CoV-2) (UniProt P0DTD1); assay: affinity purification with mass spectrometry + proximity labelling
[4] = molecular target: SARS-CoV-2 NSP7, SFB- or BioID2-tagged (SARS-CoV-2) (UniProt P0DTD1); assay: as above
[5] = molecular target: SARS-CoV-2 NSP3, SFB- or BioID2-tagged (SARS-CoV-2) (UniProt P0DTD1); assay: as above
[6] = molecular target: HCoV-OC43 NSP1, BioID2-tagged (HCoV-OC43) (UniProt P0C6X6); assay: proximity labelling
[7] = molecular target: T2, HCoV-229E NSP1, BioID2-tagged (HCoV-229E) (UniProt P0C6X1); assay: proximity labelling
T2 sequence: T1 sequence

[8] = molecular target: SARS-CoV-2 ORF6, SFB- or BioID2-tagged (SARS-CoV-2) (UniProt P0DTC6); assay: affinity purification with mass spectrometry + proximity labelling
[9] = molecular target: SARS-CoV-2 ORF7b, SFB- or BioID2-tagged (SARS-CoV-2) (UniProt P0DTD8); assay: as above
[10] = molecular target: SARS-CoV-2 NSP1, SFB- or BioID2-tagged (SARS-CoV-2) (UniProt P0DTD1); assay: as above
[11] = molecular target: MERS-CoV NSP1, SFB- or BioID2-tagged (MERS-CoV) (UniProt K9N7C7); assay: as above
[12] = molecular target: T3, HCoV-229E NSP1, SFB- or BioID2-tagged (HCoV-229E) (UniProt P0C6X1); assay: as above
T3 sequence: T1 sequence

[13] = molecular target: SARS-CoV-1 NSP1, SFB- or BioID2-tagged (SARS-CoV-1) (UniProt P0C6X7); assay: as above
[14] = molecular target: SARS-CoV-2 NSP5, SFB- or BioID2-tagged (SARS-CoV-2) (UniProt P0DTD1); assay: as above
[15] = molecular target: SARS-CoV-2 ORF3a, SFB- or BioID2-tagged (SARS-CoV-2) (UniProt P0DTC3); assay: as above
[16] = molecular target: MERS-CoV NSP1, SFB-tagged (MERS-CoV) (UniProt K9N7C7); assay: affinity purification with mass spectrometry
[17] = molecular target: SARS-CoV-2 NSP1, SFB-tagged (SARS-CoV-2) (UniProt P0DTD1); assay: affinity purification with mass spectrometry
[18] = molecular target: SARS-CoV-1 NSP1, SFB-tagged (SARS-CoV-1) (UniProt P0C6X7); assay: affinity purification with mass spectrometry

In the case of ATP5PF (from UniProt P18859 33-108), the binding [1] is reported as “binds”.
In the case of ATP13A3 (from UniProt Q9H7F0 1-1226), the binding [1] is reported as “binds”.
For ATP5PO (from UniProt P48047 24-213), the binding [1] was “binds”.
In the case of ATP5PB (from UniProt P24539 43-256), the binding [1] is reported as “binds”.
For GTF2H1 (from UniProt P32780 1-548), the binding [2] was “binds”.
In the case of ANXA5 (from UniProt P08758 1-320), the binding [3] is reported as “binds”.
For DVL2 (from UniProt O14641 1-736), the binding [4] was “binds”.
For MACROH2A2 (from UniProt Q9P0M6 1-372), the binding [5] was “binds”, the binding [6] was “binds” and the binding [7] was “binds”.
In the case of ATP5F1B (from UniProt P06576 48-529), the binding [1] is reported as “binds”.
SEC31A (from UniProt O94979 1-1220) was tested, and the binding [8] was “binds”.
For CNOT3 (from UniProt O75175 1-753), the binding [4] was “binds”.
For ERBB4 (from UniProt Q15303) (receptor), the binding [9] was “binds”.
SEC24A (from UniProt O95486 1-1093) was tested, and the binding [8] was “binds”.
In the case of TDRD3 (from UniProt Q9H7E2 1-651), the binding [10] is reported as “binds”, the binding [11] is reported as “binds” and the binding [12] is reported as “binds”. The binding [13] was “binds”.
In the case of CNOT1 (from UniProt A5YKK6 1-2376), the binding [4] is reported as “binds”.
For SEC23A (from UniProt Q15436 1-765), the binding [8] was “binds”.
In the case of SMARCA1 (from UniProt P28370 1-1042), the binding [6] is reported as “binds” and the binding [7] is reported as “binds”.
BCLAF1 (from UniProt Q9NYF8 1-920) was tested, and the binding [10] was “binds”, the binding [11] was “binds” and the binding [12] was “binds”. The binding [13] was “binds”.
CNOT2 (from UniProt Q9NZN8 1-540) was tested, and the binding [4] was “binds”.
For VAMP2 (from UniProt P63027 1-116), the binding [9] was “binds”.
In the case of SMG6 (from UniProt Q86US8 1-1419), the binding [10] is reported as “binds”, the binding [11] is reported as “binds” and the binding [12] is reported as “binds”. The binding [13] was “binds”.
In the case of SUPT16H (from UniProt Q9Y5B9 1-1047), the binding [5] is reported as “binds”, the binding [6] is reported as “binds” and the binding [7] is reported as “binds”.
DHFR (from UniProt P00374 1-187) was tested, and the binding [1] was “binds”.
SSRP1 (from UniProt Q08945 1-709) was tested, and the binding [10] was “binds”, the binding [5] was “binds” and the binding [11] was “binds”. The binding [12] was “binds” and the binding [13] was “binds”.
With USP11 (from UniProt P51784 1-963) the binding [14] was “binds”.
For MACROH2A1 (from UniProt O75367 1-369), the binding [5] was “binds”, the binding [6] was “binds” and the binding [7] was “binds”.
In the case of SIGMAR1 (from UniProt Q99720 1-223), the binding [1] is reported as “binds”.
With GTF2H2 (from UniProt Q13888 1-395) the binding [2] was “binds”.
In the case of BAZ1B (from UniProt Q9UIG0 1-1483), the binding [5] is reported as “binds”, the binding [6] is reported as “binds” and the binding [7] is reported as “binds”.
With TRAPPC10 (from UniProt P48553 1-1259) the binding [15] was “binds”.
BAZ1A (from UniProt Q9NRL2 1-1556) was tested, and the binding [5] was “binds”.
For VDAC1 (from UniProt P21796 1-283), the binding [1] was “binds”.
For GTF2H4 (from UniProt Q92759 1-462), the binding [2] was “binds”.
For DIS3L2 (from UniProt Q8IYB7 1-885), the binding [10] was “binds”, the binding [11] was “binds” and the binding [12] was “binds”. For the same substance, the binding [13] was “binds”.
ATP6AP1 (from UniProt Q15904 42-470) was tested, and the binding [1] was “binds”.
“EGFR (from UniProt P00533 25-1210) (receptor)” was tested, and the binding [9] was “binds”.
PUM3 (from UniProt Q15397 1-648) was tested, and the binding [6] was “binds” and the binding [7] was “binds”.
With RIPK1 (from UniProt Q13546 1-671) the binding [10] was “binds”, the binding [11] was “binds” and the binding [12] was “binds”. The binding [13] was “binds”.
In the case of VAMP3 (from UniProt Q15836 1-100), the binding [9] is reported as “binds”.
In the case of SMARCA4 (from UniProt P51532 1-1647), the binding [5] is reported as “binds”.
For PSIP1 (from UniProt O75475 1-530), the binding [6] was “binds” and the binding [7] was “binds”.
In the case of “ERBB2 (from UniProt P04626 23-1255) (receptor)”, the binding [9] is reported as “binds”.
For EIF4G2 (from UniProt P78344 1-907), the binding [16] was “binds”, the binding [17] was “binds” and the binding [18] was “binds”. For the same substance, the binding [2] was “binds”.
With TOP2B (from UniProt Q02880 1-1626) the binding [6] was “binds” and the binding [7] was “binds”.
In the case of ERCC3 (from UniProt P19447 1-782), the binding [2] is reported as “binds”.
With CAV1 (from UniProt Q03135 1-178) the binding [1] was “binds”.
With TRAPPC9 (from UniProt Q96Q05 1-1148) the binding [15] was “binds”.
In the case of SMARCA5 (from UniProt O60264 1-1052), the binding [6] is reported as “binds” and the binding [7] is reported as “binds”.
With MDC1 (from UniProt Q14676 1-2089) the binding [14] was “binds”.
